We go through 18 substances from US10912841B2 (PIERRE FABRE MEDICAMENT, priority 2014, dated 2021).

This series in a line: general procedure: solution-phase peptide synthesis; HATU/DIEA. The conditions noted are these: for conjugation yield: conjugation step.
[1] abbreviates: late stage modification step, 210 nm.

For the substance “(S)—N-((3R,4S,5S)-3-methoxy-1-((S)-2-((1R,2R)-1-methoxy-2-methyl-3-oxo-3-(((S)-2-phenyl-1-(thiazol-2-yl)ethyl)amino)propyl)pyrrolidin-1-yl)-5-methyl-1-oxoheptan-4-yl)-N,3-dimethyl-2-((R)-3-methyl-2-(methyl(2-(2-(methylamino) ethoxy)ethyl)amino)butanamido)butanamide”, where the note is “late stage modification step”, the step yield is reported as 64%. Also, the “final HPLC purity” value under setting [1] is 100%.
Where the note is “late stage modification step”, “(S)—N-((3R,4S,5S)-3-methoxy-1-((S)-2-((1R,2R)-1-methoxy-2-methyl-3-oxo-3-(((S)-2-phenyl-1-(thiazol-2-yl)ethyl)amino)propyl)pyrrolidin-1-yl)-5-methyl-1-oxoheptan-4-yl)-N,3-dimethyl-2-((S)-3-methyl-2-(methyl(2-(piperazin-1-yl)ethyl)amino)butanamido)butanamide” gave a step yield of 19%. For the same substance, the “final HPLC purity” value under setting [1] is 98.8%.
For the substance “(S)—N-((3R,4S,5S)-3-methoxy-1-((S)-2-((1R,2R)-1-methoxy-2-methyl-3-oxo-3-(((S)-2-phenyl-1-(thiazol-2-yl)ethyl)amino)propyl)pyrrolidin-1-yl)-5-methyl-1-oxoheptan-4-yl)-N,3-dimethyl-2-((S)-3-methyl-2-(methyl(3-(methylamino)propyl)amino) butanamido)butanamide”, the “purity (crude or final not stated)” value (210 nm) was 88%.
For the substance “Methyl ((2R,3R)-3-((S)-1-((3R,4S,5S)-4-((S)-2-((S)-2-((4-aminophenethyl)(methyl)amino)-3-methylbutanamido)-N,3-dimethylbutanamido)-3-methoxy-5-methylheptanoyl)pyrrolidin-2-yl)-3-methoxy-2-methylpropanoyl)-L-phenylalaninate”, the step yield (coupling step) was 45%.
For the substance “N—((S)-1-(((S)-1-((4-((3R,4S,7S,10S)-4-((S)-sec-butyl)-7,10-diisopropyl-3-(2-((S)-2-((1R,2R)-1-methoxy-2-methyl-3-oxo-3-(((S)-2-phenyl-1-(thiazol-2-yl)ethyl)amino)propyl)pyrrolidin-1-yl)-2-oxoethyl)-5,11-dimethyl-6,9-dioxo-2-oxa-5,8,11-triazatridecan-13-yl)phenyl)amino)-1-oxo-5-ureidopentan-2-yl)amino)-3-methyl-1-oxobutan-2-yl)-6-(2,5-dioxo-2,5-dihydro-1H-pyrrol-1-yl)hexanamide 2,2,2-trifluoroacetate”, the conjugation yield was 70%.
In turn, “methyl ((2R,3R)-3-((S)-1-((3R,4S,5S)-4-((S)-2-((S)-2-((3-(6-(2,5-dioxo-2,5-dihydro-1H-pyrrol-1-yl)hexanamido)benzyl)(methyl)amino)-3-methylbutanamido)-N,3-dimethylbutanamido)-3-methoxy-5-methylheptanoyl)pyrrolidin-2-yl)-3-methoxy-2-methylpropanoyl)-L-phenylalaninate 2,2,2-trifluoroacetate” showed a conjugation yield of 50%.
Take “methyl ((2R,3R)-3-((S)-1-((3R,4S,5S)-4-((S)-2-((S)-2-((4-(6-(2,5-dioxo-2,5-dihydro-1H-pyrrol-1-yl)-N-methylhexanamido)phenethyl)(methyl)amino)-3-methylbutanamido)-N,3-dimethylbutanamido)-3-methoxy-5-methylheptanoyl)pyrrolidin-2-yl)-3-methoxy-2-methylpropanoyl)-L-phenylalaninate 2,2,2-trifluoroacetate”: the conjugation yield turned out to be 16%.
In turn, “methyl ((2R,3R)-3-((S)-1-((3R,4S,5S)-4-((S)-2-((S)-2-((4-((((4-((S)-2-((S)-2-(6-(2,5-dioxo-2,5-dihydro-1H-pyrrol-1-yl)hexanamido)-3-methylbutanamido)-5-ureidopentanamido)benzyl)oxy)carbonyl)(methyl)amino)phenethyl)(methyl) amino)-3-methylbutanamido)-N,3-dimethylbutanamido)-3-methoxy-5-methylheptanoyl)pyrrolidin-2-yl)-3-methoxy-2-methylpropanoyl)-L-phenylalaninate 2,2,2-trifluoroacetate” yielded a conjugation yield of 70%.
Consider “methyl (S)-2-((2R,3R)-3-((S)-1-((3R,4S,5S)-4-((S)-2-((((9H-fluoren-9-yl)methoxy)carbonyl)amino)-N,3-dimethylbutanamido)-3-methoxy-5-methylheptanoyl)pyrrolidin-2-yl)-3-methoxy-2-methylpropanamido)-3-phenylpropanoate”, for which, under “coupling step”, the step yield came out at 34%.
In turn, “methyl (S)-2-((2R,3R)-3-((S)-1-((3R,4S,5S)-4-((S)-2-((S)-2-((2-aminoethyl)(methyl)amino)-3-methylbutanamido)-N,3-dimethylbutanamido)-3-methoxy-5-methylheptanoyl)pyrrolidin-2-yl)-3-methoxy-2-methylpropanamido)-3-phenylpropanoate” returned a step yield (late stage modification step) of 10%. Moreover, under setting [1], the “final HPLC purity” value came out at 91.0%.
In the case of “methyl (S)-2-((2R,3R)-3-((S)-1-((3R,4S,5S)-4-((S)-2-((S)-2-((4-hydroxyphenethyl)(methyl)amino)-3-methylbutanamido)-N,3-dimethylbutanamido)-3-methoxy-5-methylheptanoyl)pyrrolidin-2-yl)-3-methoxy-2-methylpropanamido)-3-phenylpropanoate”, for the setting “coupling step”, the step yield was 3%. For the setting “coupling step, 210 nm”, the “final HPLC purity” value is reported as 89.1%.
Under “late stage modification step”, “methyl (S)-2-((2R,3R)-3-((S)-1-((3R,4S,5S)-4-((S)-2-amino-N,3-dimethylbutanamido)-3-methoxy-5-methylheptanoyl)pyrrolidin-2-yl)-3-methoxy-2-methylpropanamido)-3-phenylpropanoate” gave a step yield of 81%.
With “methyl (S)-2-((2R,3R)-3-((S)-1-((3R,4S,5S)-4-((S)—N,3-dimethyl-2-((S)-3-methyl-2-(methyl(2-(piperazin-1-yl)ethyl)amino)butanamido)butanamido)-3-methoxy-5-methylheptanoyl)pyrrolidin-2-yl)-3-methoxy-2-methylpropanamido)-3-phenylpropanoate”, the step yield (late stage modification step) was 19%. Further, the “final HPLC purity” value under setting [1] is reported as 100%.
For “methyl (S)-2-((2R,3R)-3-((S)-1-((7S,10S,13S,14R)-1-amino-13-((S)-sec-butyl)-7,10-diisopropyl-14-methoxy-6,12-dimethyl-8,11-dioxo-3-oxa-6,9,12-triazahexadecan-16-oyl)pyrrolidin-2-yl)-3-methoxy-2-methylpropanamido)-3-phenylpropanoate”, the step yield (late stage modification step) stood at 13%. Also, the “final HPLC purity” value under setting [1] amounted to 98.5%.
The corresponding values for “methyl (S)-2-((2R,3R)-3-((S)-1-((8S,11S,14S,15R)-14-((S)-sec-butyl)-8,11-diisopropyl-15-methoxy-7,13-dimethyl-9,12-dioxo-2,7,10,13-tetraazaheptadecan-17-oyl)pyrrolidin-2-yl)-3-methoxy-2-methylpropanamido)-3-phenylpropanoate” are 25% and 97.2%.
“methyl (S)-2-((2R,3R)-3-((S)-1-((9S,12S,15S,16R)-15-((S)-sec-butyl)-9,12-diisopropyl-16-methoxy-8,14-dimethyl-10,13-dioxo-5-oxa-2,8,11,14-tetraazaoctadecan-18-oyl)pyrrolidin-2-yl)-3-methoxy-2-methylpropanamido)-3-phenylpropanoate” had a step yield (late stage modification step) of 40%. Moreover, under setting [1], the “final HPLC purity” value is recorded as 100%.
“methyl((2R,3R)-3-((S)-1-((3R,4S,5S)-4-((S)-2-((S)-2-((4-((S)-2-((S)-2-(6-(2,5-dioxo-2,5-dihydro-1H-pyrrol-1-yl)hexanamido)-3-methylbutanamido)-5-ureidopentanamido)phenethyl)(methyl)amino)-3-methylbutanamido)-N,3-dimethylbutanamido)-3-methoxy-5-methylheptanoyl)pyrrolidin-2-yl)-3-methoxy-2-methylpropanoyl)-L-phenylalaninate 2,2,2-trifluoroacetate” showed a conjugation yield of 13%.
Where the note is “coupling step”, “tert-butyl (3-((3S,6S,9S,10R)-9-((S)-sec-butyl)-10-(2-((S)-2-((1R,2R)-3-(((1S,2R)-1-hydroxy-1-phenylpropan-2-yl)amino)-1-methoxy-2-methyl-3-oxopropyl)pyrrolidin-1-yl)-2-oxoethyl)-3,6-diisopropyl-2,8-dimethyl-4,7-dioxo-11-oxa-25,8-triazadodecyl)phenyl)carbamate” came in with a step yield of 66%.
